# In the supplement of paper PMC12823440, “Inhibitors supercharge kinase turnover through native proteolytic circuits” (Nature, 2025):
# The chains behind the UniProt entries cited, without tags or fusion partners. Where a name states a change or a piece, a line headed by the entry shows the natural chain unless it says otherwise.
# UniProt Q15208: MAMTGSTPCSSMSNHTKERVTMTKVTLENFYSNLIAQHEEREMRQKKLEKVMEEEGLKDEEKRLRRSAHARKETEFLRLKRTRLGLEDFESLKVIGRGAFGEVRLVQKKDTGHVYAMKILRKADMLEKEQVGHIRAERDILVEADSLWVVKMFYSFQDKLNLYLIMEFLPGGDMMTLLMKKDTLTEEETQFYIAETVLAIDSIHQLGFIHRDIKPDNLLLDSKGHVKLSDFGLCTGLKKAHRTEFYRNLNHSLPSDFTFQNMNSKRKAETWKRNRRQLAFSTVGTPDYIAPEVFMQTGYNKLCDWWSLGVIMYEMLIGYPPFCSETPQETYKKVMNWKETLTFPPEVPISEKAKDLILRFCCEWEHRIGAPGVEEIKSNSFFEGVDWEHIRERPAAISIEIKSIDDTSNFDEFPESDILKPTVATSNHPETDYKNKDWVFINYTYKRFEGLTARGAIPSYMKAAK
# UniProt P42680: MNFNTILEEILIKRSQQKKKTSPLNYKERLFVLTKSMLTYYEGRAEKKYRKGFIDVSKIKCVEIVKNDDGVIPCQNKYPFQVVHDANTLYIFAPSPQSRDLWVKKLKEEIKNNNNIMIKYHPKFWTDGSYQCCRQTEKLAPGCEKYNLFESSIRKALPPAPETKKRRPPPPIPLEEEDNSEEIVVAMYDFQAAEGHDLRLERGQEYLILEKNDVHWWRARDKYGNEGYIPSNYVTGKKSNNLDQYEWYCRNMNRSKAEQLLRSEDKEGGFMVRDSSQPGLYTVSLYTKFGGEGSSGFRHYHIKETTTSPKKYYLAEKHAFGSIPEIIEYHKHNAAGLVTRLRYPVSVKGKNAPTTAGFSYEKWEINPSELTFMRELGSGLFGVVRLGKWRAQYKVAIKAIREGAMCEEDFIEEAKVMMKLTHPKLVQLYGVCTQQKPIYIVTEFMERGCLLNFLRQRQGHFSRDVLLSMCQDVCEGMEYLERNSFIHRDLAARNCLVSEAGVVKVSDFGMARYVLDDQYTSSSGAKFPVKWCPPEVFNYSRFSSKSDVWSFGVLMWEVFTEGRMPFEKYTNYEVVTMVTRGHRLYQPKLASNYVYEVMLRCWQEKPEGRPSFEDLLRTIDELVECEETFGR
# UniProt P29597: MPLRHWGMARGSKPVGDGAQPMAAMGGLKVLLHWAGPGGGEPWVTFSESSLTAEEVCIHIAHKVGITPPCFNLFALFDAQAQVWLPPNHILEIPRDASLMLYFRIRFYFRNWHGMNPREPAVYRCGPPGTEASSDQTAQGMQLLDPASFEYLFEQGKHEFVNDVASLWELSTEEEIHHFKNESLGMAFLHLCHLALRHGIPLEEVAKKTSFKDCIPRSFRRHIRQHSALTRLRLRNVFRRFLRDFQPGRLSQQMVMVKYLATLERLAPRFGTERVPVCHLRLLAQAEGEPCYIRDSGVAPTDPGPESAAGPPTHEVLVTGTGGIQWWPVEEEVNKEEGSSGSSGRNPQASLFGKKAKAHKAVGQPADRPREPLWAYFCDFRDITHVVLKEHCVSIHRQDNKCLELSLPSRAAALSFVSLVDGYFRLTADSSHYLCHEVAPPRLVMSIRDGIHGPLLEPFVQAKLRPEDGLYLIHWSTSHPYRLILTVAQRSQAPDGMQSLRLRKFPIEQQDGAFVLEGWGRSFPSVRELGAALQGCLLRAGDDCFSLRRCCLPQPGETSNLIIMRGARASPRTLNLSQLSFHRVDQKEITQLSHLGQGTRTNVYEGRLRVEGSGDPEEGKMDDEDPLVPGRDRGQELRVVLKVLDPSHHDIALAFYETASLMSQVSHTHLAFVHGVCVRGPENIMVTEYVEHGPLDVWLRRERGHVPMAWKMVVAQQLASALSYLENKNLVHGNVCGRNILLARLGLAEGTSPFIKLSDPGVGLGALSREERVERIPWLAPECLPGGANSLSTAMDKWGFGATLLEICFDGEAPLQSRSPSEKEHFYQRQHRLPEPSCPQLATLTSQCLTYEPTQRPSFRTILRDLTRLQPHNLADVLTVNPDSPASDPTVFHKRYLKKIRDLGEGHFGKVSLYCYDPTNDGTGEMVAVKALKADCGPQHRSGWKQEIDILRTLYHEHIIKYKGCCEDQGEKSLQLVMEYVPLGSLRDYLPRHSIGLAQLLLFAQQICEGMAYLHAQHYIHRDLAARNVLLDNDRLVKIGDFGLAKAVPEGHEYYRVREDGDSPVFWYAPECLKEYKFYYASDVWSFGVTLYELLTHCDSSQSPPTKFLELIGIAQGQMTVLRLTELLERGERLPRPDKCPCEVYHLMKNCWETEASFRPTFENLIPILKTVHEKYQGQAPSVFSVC
# UniProt Q6PHR2: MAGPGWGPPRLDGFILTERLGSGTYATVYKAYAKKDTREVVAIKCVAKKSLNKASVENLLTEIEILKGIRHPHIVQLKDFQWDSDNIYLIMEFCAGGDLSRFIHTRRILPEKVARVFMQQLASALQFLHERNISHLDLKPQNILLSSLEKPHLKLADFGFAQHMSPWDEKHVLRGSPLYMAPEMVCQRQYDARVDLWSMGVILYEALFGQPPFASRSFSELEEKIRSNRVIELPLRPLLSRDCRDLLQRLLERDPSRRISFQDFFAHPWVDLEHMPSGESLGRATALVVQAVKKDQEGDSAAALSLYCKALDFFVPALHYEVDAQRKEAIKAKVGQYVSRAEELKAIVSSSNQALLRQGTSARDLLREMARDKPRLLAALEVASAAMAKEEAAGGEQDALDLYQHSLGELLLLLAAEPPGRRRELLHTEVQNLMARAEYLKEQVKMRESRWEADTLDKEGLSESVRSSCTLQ
# UniProt P07947, whole entry, looked up: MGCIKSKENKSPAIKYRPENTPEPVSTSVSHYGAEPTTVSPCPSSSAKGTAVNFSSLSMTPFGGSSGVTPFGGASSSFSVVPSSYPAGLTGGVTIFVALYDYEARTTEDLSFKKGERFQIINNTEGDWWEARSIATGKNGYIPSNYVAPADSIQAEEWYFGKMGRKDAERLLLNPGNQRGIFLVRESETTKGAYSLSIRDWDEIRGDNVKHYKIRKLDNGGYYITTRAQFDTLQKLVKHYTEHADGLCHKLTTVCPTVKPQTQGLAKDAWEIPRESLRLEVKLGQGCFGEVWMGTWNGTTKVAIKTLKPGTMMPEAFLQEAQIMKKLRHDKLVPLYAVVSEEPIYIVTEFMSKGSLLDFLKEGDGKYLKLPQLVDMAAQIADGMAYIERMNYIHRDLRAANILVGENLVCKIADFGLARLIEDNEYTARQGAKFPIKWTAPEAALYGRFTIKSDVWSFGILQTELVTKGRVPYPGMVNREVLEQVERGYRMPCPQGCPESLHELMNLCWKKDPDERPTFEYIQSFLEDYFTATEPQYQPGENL
# UniProt P43403: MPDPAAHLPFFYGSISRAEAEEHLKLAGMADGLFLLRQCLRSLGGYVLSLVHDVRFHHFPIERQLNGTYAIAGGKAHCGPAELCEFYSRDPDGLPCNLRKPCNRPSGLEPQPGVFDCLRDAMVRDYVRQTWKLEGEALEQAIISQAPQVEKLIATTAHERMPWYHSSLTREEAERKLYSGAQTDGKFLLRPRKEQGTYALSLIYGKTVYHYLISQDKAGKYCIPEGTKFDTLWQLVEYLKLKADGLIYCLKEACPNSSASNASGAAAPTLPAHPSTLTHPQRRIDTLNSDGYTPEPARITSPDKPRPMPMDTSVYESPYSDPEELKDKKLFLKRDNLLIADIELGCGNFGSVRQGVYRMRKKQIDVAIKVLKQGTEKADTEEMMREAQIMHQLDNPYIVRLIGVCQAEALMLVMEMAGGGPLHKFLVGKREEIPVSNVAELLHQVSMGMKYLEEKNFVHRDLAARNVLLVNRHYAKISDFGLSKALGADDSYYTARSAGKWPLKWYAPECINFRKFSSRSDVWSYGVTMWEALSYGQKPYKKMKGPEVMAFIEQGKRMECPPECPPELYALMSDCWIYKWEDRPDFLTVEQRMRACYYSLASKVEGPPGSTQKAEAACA
# UniProt P11802: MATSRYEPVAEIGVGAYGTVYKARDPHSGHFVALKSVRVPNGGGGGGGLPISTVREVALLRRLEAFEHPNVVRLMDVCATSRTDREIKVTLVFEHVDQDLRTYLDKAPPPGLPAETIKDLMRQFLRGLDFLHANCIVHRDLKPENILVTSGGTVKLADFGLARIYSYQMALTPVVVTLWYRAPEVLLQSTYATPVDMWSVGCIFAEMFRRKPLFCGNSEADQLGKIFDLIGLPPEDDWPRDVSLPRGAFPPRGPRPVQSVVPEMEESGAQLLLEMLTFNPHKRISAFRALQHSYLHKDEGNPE
# UniProt P50613: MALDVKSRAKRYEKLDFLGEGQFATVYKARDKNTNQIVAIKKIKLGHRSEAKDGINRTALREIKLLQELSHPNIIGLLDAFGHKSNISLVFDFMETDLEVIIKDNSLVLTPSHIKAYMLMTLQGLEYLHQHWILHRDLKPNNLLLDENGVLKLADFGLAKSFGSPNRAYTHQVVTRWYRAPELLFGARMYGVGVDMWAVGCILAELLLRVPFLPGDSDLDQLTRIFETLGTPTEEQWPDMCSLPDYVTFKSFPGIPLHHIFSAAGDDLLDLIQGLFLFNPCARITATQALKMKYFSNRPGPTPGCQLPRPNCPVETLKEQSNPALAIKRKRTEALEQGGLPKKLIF
# The other results are listed elsewhere or left out. The calls rarely recur for the same compound in another form.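 Kinases were expressed as nanoluciferase fusions in K562 cells and luminescence was read every 4 h between 2 and 18 h as percent of control, DMSO set to 100% and a positive control to 0%. A time point counts as decreased when the signal drops significantly (2 sigma). The hit call is the authors' own, does not follow from the count of time points alone, and its rule is not shown.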
# Key:
# Conditions in all cases: K562, 2-18 h
# STK38 = STK38 (UniProt Q15208); test: kinase-Nluc reporter destabilization hit call (1 = scored as downregulated) (binary); higher = compound decreases kinase abundance
# SYK = SYK (UniProt P43405); test: as above
# TEC = TEC (UniProt P42680); test: as above
# TYK2 = TYK2 (UniProt P29597); test: as above
# ULK3 = ULK3 (UniProt Q6PHR2); test: as above
# YES1 = YES1 (UniProt P07947); test: as above
# ZAK = ZAK (UniProt Q9NYL2); test: as above
# ZAP70 = ZAP70 (UniProt P43403); test: as above
# CDK4 = CDK4 (UniProt P11802); test: number of time points (of 4; 2 h point missing) at which kinase-Nluc abundance scored as decreased, DMSO-normalised (count); higher = more persistent destabilization
# CDK7 = CDK7 (UniProt P50613); test: as above
smiles,measurement,setting,value
C[C@H]1Oc2cc(cnc2N)-c2c(nn(C)c2C#N)CN(C)C(=O)c2ccc(F)cc21 [Lorlatinib],kinase-Nluc reporter destabilization hit call,STK38; 10 µM,inactive: 0
same,kinase-Nluc reporter destabilization hit call,SYK; 10 µM,inactive: 0
same,kinase-Nluc reporter destabilization hit call,TEC; 10 µM,inactive: 0
same,kinase-Nluc reporter destabilization hit call,TYK2; 10 µM,inactive: 0
same,kinase-Nluc reporter destabilization hit call,ULK3; 10 µM,inactive: 0
same,kinase-Nluc reporter destabilization hit call,YES1; 10 µM,inactive: 0
same,kinase-Nluc reporter destabilization hit call,ZAK; 10 µM,inactive: 0
same,kinase-Nluc reporter destabilization hit call,ZAP70; 10 µM,inactive: 0
same,number of time points,CDK4; 10 µM,0
same,number of time points,CDK7; 10 µM,0
COc1cc(Nc2c(C#N)cnc3cc(OCCCN4CCN(C)CC4)c(OC)cc23)c(Cl)cc1Cl [Bosutinib],kinase-Nluc reporter destabilization hit call,STK38; 2.5 µM,inactive: 0
same,kinase-Nluc reporter destabilization hit call,SYK; 2.5 µM,inactive: 0
same,kinase-Nluc reporter destabilization hit call,TEC; 2.5 µM,inactive: 0
same,kinase-Nluc reporter destabilization hit call,TYK2; 2.5 µM,inactive: 0
same,kinase-Nluc reporter destabilization hit call,ULK3; 2.5 µM,inactive: 0
same,kinase-Nluc reporter destabilization hit call,YES1; 2.5 µM,inactive: 0
same,kinase-Nluc reporter destabilization hit call,ZAP70; 2.5 µM,inactive: 0
same,number of time points,CDK4; 2.5 µM,0
same,number of time points,CDK7; 2.5 µM,2
N#CC(=Cc1cc(Cl)cc(Cl)c1)c1cccnc1,kinase-Nluc reporter destabilization hit call,STK38; 10 µM,inactive: 0
same,kinase-Nluc reporter destabilization hit call,SYK; 10 µM,inactive: 0
same,kinase-Nluc reporter destabilization hit call,TYK2; 10 µM,inactive: 0
same,number of time points,CDK4; 10 µM,0
same,number of time points,CDK7; 10 µM,0
COc1cc2/c(=N/c3ccc(Br)cc3F)nc[nH]c2cc1OCC1CCN(C)CC1 [Vandetanib],kinase-Nluc reporter destabilization hit call,STK38; 2.5 µM,inactive: 0
same,kinase-Nluc reporter destabilization hit call,SYK; 2.5 µM,inactive: 0
same,kinase-Nluc reporter destabilization hit call,TEC; 2.5 µM,inactive: 0
same,kinase-Nluc reporter destabilization hit call,TYK2; 2.5 µM,inactive: 0
same,kinase-Nluc reporter destabilization hit call,ULK3; 2.5 µM,inactive: 0
same,kinase-Nluc reporter destabilization hit call,YES1; 2.5 µM,inactive: 0
same,kinase-Nluc reporter destabilization hit call,ZAP70; 2.5 µM,inactive: 0
same,number of time points,CDK4; 2.5 µM,0
same,number of time points,CDK7; 2.5 µM,0
O=C1Cc2c([nH]c3ccc(Br)cc23)-c2ccccc2N1 [Kenpaullone],kinase-Nluc reporter destabilization hit call,STK38; 10 µM,inactive: 0
same,kinase-Nluc reporter destabilization hit call,SYK; 10 µM,inactive: 0
same,kinase-Nluc reporter destabilization hit call,TEC; 10 µM,inactive: 0
same,kinase-Nluc reporter destabilization hit call,ULK3; 10 µM,inactive: 0
same,kinase-Nluc reporter destabilization hit call,YES1; 10 µM,inactive: 0
same,kinase-Nluc reporter destabilization hit call,ZAK; 10 µM,inactive: 0
same,kinase-Nluc reporter destabilization hit call,ZAP70; 10 µM,inactive: 0
same,number of time points,CDK4; 10 µM,0
same,number of time points,CDK7; 10 µM,0
NC(=O)c1c(OCc2c(F)cc(Br)cc2F)nsc1NC(=O)NCCCCN1CCCC1,kinase-Nluc reporter destabilization hit call,STK38; 2.5 µM,inactive: 0
same,kinase-Nluc reporter destabilization hit call,TEC; 2.5 µM,inactive: 0
same,kinase-Nluc reporter destabilization hit call,TYK2; 2.5 µM,inactive: 0
same,kinase-Nluc reporter destabilization hit call,ULK3; 2.5 µM,inactive: 0
same,kinase-Nluc reporter destabilization hit call,YES1; 2.5 µM,inactive: 0
same,kinase-Nluc reporter destabilization hit call,ZAK; 2.5 µM,inactive: 0
same,kinase-Nluc reporter destabilization hit call,ZAP70; 2.5 µM,inactive: 0
same,number of time points,CDK4; 2.5 µM,0
same,number of time points,CDK7; 2.5 µM,0
NCCNc1ncc(C(N)=O)c(Nc2cccc(C(F)(F)F)c2)n1 [Syk Inhibitor II],kinase-Nluc reporter destabilization hit call,STK38; 10 µM,inactive: 0
same,kinase-Nluc reporter destabilization hit call,SYK; 10 µM,inactive: 0
same,kinase-Nluc reporter destabilization hit call,TEC; 10 µM,inactive: 0
same,kinase-Nluc reporter destabilization hit call,TYK2; 10 µM,inactive: 0
same,kinase-Nluc reporter destabilization hit call,ULK3; 10 µM,inactive: 0
same,kinase-Nluc reporter destabilization hit call,YES1; 10 µM,inactive: 0
same,kinase-Nluc reporter destabilization hit call,ZAK; 10 µM,inactive: 0
same,kinase-Nluc reporter destabilization hit call,ZAP70; 10 µM,inactive: 0
same,number of time points,CDK4; 10 µM,0
same,number of time points,CDK7; 10 µM,0
CCCCCC1CC1CC1CC1CCCCCCCC(=O)OC (configuration not stated),kinase-Nluc reporter destabilization hit call,STK38; 10 µM,inactive: 0
same,kinase-Nluc reporter destabilization hit call,SYK; 10 µM,inactive: 0
same,kinase-Nluc reporter destabilization hit call,TEC; 10 µM,inactive: 0
same,kinase-Nluc reporter destabilization hit call,TYK2; 10 µM,inactive: 0
same,kinase-Nluc reporter destabilization hit call,ULK3; 10 µM,inactive: 0
same,kinase-Nluc reporter destabilization hit call,YES1; 10 µM,inactive: 0
same,kinase-Nluc reporter destabilization hit call,ZAK; 10 µM,inactive: 0
same,kinase-Nluc reporter destabilization hit call,ZAP70; 10 µM,inactive: 0
same,number of time points,CDK4; 10 µM,0
same,number of time points,CDK7; 10 µM,0
CN1CCN(c2ccc3nc(-c4c(N)c5c(F)cccc5[nH]c4=O)[nH]c3c2)CC1 [Dovitinib (lactate)],kinase-Nluc reporter destabilization hit call,STK38; 2.5 µM,inactive: 0
same,kinase-Nluc reporter destabilization hit call,SYK; 2.5 µM,inactive: 0
same,kinase-Nluc reporter destabilization hit call,TEC; 2.5 µM,inactive: 0
same,kinase-Nluc reporter destabilization hit call,TYK2; 2.5 µM,inactive: 0
same,kinase-Nluc reporter destabilization hit call,ULK3; 2.5 µM,inactive: 0
same,kinase-Nluc reporter destabilization hit call,YES1; 2.5 µM,inactive: 0
same,kinase-Nluc reporter destabilization hit call,ZAK; 2.5 µM,inactive: 0
same,kinase-Nluc reporter destabilization hit call,ZAP70; 2.5 µM,inactive: 0
same,number of time points,CDK4; 2.5 µM,0
same,number of time points,CDK7; 2.5 µM,0
C=CC(=O)Nc1cc2c(Nc3ccc(F)c(Cl)c3)ncnc2cc1OCCCN1CCOCC1 [Canertinib],kinase-Nluc reporter destabilization hit call,STK38; 10 µM,inactive: 0
same,kinase-Nluc reporter destabilization hit call,SYK; 10 µM,inactive: 0
same,kinase-Nluc reporter destabilization hit call,TEC; 10 µM,inactive: 0
same,kinase-Nluc reporter destabilization hit call,TYK2; 10 µM,inactive: 0
same,kinase-Nluc reporter destabilization hit call,ULK3; 10 µM,inactive: 0
same,kinase-Nluc reporter destabilization hit call,YES1; 10 µM,inactive: 0
same,kinase-Nluc reporter destabilization hit call,ZAK; 10 µM,inactive: 0
same,kinase-Nluc reporter destabilization hit call,ZAP70; 10 µM,inactive: 0
same,number of time points,CDK4; 10 µM,0
same,number of time points,CDK7; 10 µM,0
CCOc1nc(NC(=O)Cc2cc(OC)ccc2OC)cc(N)c1C#N [JNK Inhibitor VIII],kinase-Nluc reporter destabilization hit call,STK38; 10 µM,inactive: 0
same,kinase-Nluc reporter destabilization hit call,SYK; 10 µM,inactive: 0
same,kinase-Nluc reporter destabilization hit call,TEC; 10 µM,inactive: 0
same,kinase-Nluc reporter destabilization hit call,TYK2; 10 µM,inactive: 0
same,kinase-Nluc reporter destabilization hit call,ULK3; 10 µM,inactive: 0
same,kinase-Nluc reporter destabilization hit call,YES1; 10 µM,inactive: 0
same,kinase-Nluc reporter destabilization hit call,ZAK; 10 µM,inactive: 0
same,kinase-Nluc reporter destabilization hit call,ZAP70; 10 µM,inactive: 0
same,number of time points,CDK4; 10 µM,0
same,number of time points,CDK7; 10 µM,0
C=CC(=O)N1CCC([C@@H]2CCNc3c(C(N)=O)c(-c4ccc(Oc5ccccc5)cc4)nn32)CC1 [Zanubrutinib],kinase-Nluc reporter destabilization hit call,STK38; 10 µM,inactive: 0
same,kinase-Nluc reporter destabilization hit call,SYK; 10 µM,inactive: 0
same,kinase-Nluc reporter destabilization hit call,TEC; 10 µM,inactive: 0
same,kinase-Nluc reporter destabilization hit call,TYK2; 10 µM,inactive: 0
same,kinase-Nluc reporter destabilization hit call,ULK3; 10 µM,inactive: 0
same,kinase-Nluc reporter destabilization hit call,YES1; 10 µM,inactive: 0
same,kinase-Nluc reporter destabilization hit call,ZAK; 10 µM,inactive: 0
same,kinase-Nluc reporter destabilization hit call,ZAP70; 10 µM,inactive: 0
same,number of time points,CDK4; 10 µM,0
same,number of time points,CDK7; 10 µM,0
Cc1cc(Nc2cc(N3CCN(C)CC3)nc(/C=C/c3ccccc3)n2)n[nH]1,kinase-Nluc reporter destabilization hit call,STK38; 2.5 µM,inactive: 0
same,kinase-Nluc reporter destabilization hit call,TEC; 2.5 µM,inactive: 0
same,kinase-Nluc reporter destabilization hit call,TYK2; 2.5 µM,inactive: 0
same,kinase-Nluc reporter destabilization hit call,ULK3; 2.5 µM,inactive: 0
same,kinase-Nluc reporter destabilization hit call,YES1; 2.5 µM,inactive: 0
same,kinase-Nluc reporter destabilization hit call,ZAK; 2.5 µM,inactive: 0
same,kinase-Nluc reporter destabilization hit call,ZAP70; 2.5 µM,inactive: 0
same,number of time points,CDK4; 2.5 µM,0
same,number of time points,CDK7; 2.5 µM,0
O=S(=O)(c1cccc2c(O)nccc12)N1CCCNCC1 [Hydroxyfasudil],kinase-Nluc reporter destabilization hit call,STK38; 10 µM,inactive: 0
same,kinase-Nluc reporter destabilization hit call,SYK; 10 µM,inactive: 0
same,kinase-Nluc reporter destabilization hit call,TEC; 10 µM,inactive: 0
same,kinase-Nluc reporter destabilization hit call,TYK2; 10 µM,inactive: 0
same,kinase-Nluc reporter destabilization hit call,ULK3; 10 µM,inactive: 0
same,kinase-Nluc reporter destabilization hit call,YES1; 10 µM,inactive: 0
same,kinase-Nluc reporter destabilization hit call,ZAK; 10 µM,inactive: 0
same,kinase-Nluc reporter destabilization hit call,ZAP70; 10 µM,inactive: 0
same,number of time points,CDK4; 10 µM,0
same,number of time points,CDK7; 10 µM,0
Cn1cc(/C=C2\C(=O)Nc3cccnc32)c2ccccc21,kinase-Nluc reporter destabilization hit call,STK38; 10 µM,inactive: 0
same,kinase-Nluc reporter destabilization hit call,SYK; 10 µM,inactive: 0
same,kinase-Nluc reporter destabilization hit call,TEC; 10 µM,inactive: 0
same,kinase-Nluc reporter destabilization hit call,TYK2; 10 µM,inactive: 0
same,kinase-Nluc reporter destabilization hit call,ULK3; 10 µM,inactive: 0
same,kinase-Nluc reporter destabilization hit call,YES1; 10 µM,inactive: 0
same,number of time points,CDK4; 10 µM,0
same,number of time points,CDK7; 10 µM,0
CN1CCN(c2nc(C3=C(c4c[nH]c5ccccc45)C(=O)NC3=O)c3ccccc3n2)CC1 [Sotrastaurin],kinase-Nluc reporter destabilization hit call,STK38; 2.5 µM,inactive: 0
same,kinase-Nluc reporter destabilization hit call,SYK; 2.5 µM,inactive: 0
same,kinase-Nluc reporter destabilization hit call,TEC; 2.5 µM,inactive: 0
same,kinase-Nluc reporter destabilization hit call,TYK2; 2.5 µM,inactive: 0
same,kinase-Nluc reporter destabilization hit call,ULK3; 2.5 µM,inactive: 0
same,kinase-Nluc reporter destabilization hit call,YES1; 2.5 µM,inactive: 0
same,kinase-Nluc reporter destabilization hit call,ZAK; 2.5 µM,inactive: 0
same,kinase-Nluc reporter destabilization hit call,ZAP70; 2.5 µM,inactive: 0
same,number of time points,CDK4; 2.5 µM,0
same,number of time points,CDK7; 2.5 µM,0
Cc1ccc(O)cc1Nc1ccnc(Nc2cccc(C(N)=O)c2)n1 [Lck inhibitor 2],kinase-Nluc reporter destabilization hit call,STK38; 10 µM,inactive: 0
same,kinase-Nluc reporter destabilization hit call,TEC; 10 µM,inactive: 0
same,kinase-Nluc reporter destabilization hit call,TYK2; 10 µM,inactive: 0
same,kinase-Nluc reporter destabilization hit call,ULK3; 10 µM,inactive: 0
same,kinase-Nluc reporter destabilization hit call,YES1; 10 µM,inactive: 0
same,kinase-Nluc reporter destabilization hit call,ZAK; 10 µM,inactive: 0
same,kinase-Nluc reporter destabilization hit call,ZAP70; 10 µM,inactive: 0
same,number of time points,CDK4; 10 µM,0
same,number of time points,CDK7; 10 µM,0

# Pulled one by one from the list above (6):
smiles,measurement,setting,value
Cc1cc(Nc2cc(N3CCN(C)CC3)nc(/C=C/c3ccccc3)n2)n[nH]1,kinase-Nluc reporter destabilization hit call,TEC; 2.5 µM,inactive: 0
COc1cc2/c(=N/c3ccc(Br)cc3F)nc[nH]c2cc1OCC1CCN(C)CC1 [Vandetanib],number of time points,CDK7; 2.5 µM,0
O=S(=O)(c1cccc2c(O)nccc12)N1CCCNCC1 [Hydroxyfasudil],kinase-Nluc reporter destabilization hit call,ZAP70; 10 µM,inactive: 0
CN1CCN(c2ccc3nc(-c4c(N)c5c(F)cccc5[nH]c4=O)[nH]c3c2)CC1 [Dovitinib (lactate)],kinase-Nluc reporter destabilization hit call,YES1; 2.5 µM,inactive: 0
C=CC(=O)Nc1cc2c(Nc3ccc(F)c(Cl)c3)ncnc2cc1OCCCN1CCOCC1 [Canertinib],kinase-Nluc reporter destabilization hit call,TEC; 10 µM,inactive: 0
COc1cc(Nc2c(C#N)cnc3cc(OCCCN4CCN(C)CC4)c(OC)cc23)c(Cl)cc1Cl [Bosutinib],kinase-Nluc reporter destabilization hit call,SYK; 2.5 µM,inactive: 0
